Reference: paper PMC4858978

The chains behind the UniProt entries cited, without tags or fusion partners.
UniProt P14618: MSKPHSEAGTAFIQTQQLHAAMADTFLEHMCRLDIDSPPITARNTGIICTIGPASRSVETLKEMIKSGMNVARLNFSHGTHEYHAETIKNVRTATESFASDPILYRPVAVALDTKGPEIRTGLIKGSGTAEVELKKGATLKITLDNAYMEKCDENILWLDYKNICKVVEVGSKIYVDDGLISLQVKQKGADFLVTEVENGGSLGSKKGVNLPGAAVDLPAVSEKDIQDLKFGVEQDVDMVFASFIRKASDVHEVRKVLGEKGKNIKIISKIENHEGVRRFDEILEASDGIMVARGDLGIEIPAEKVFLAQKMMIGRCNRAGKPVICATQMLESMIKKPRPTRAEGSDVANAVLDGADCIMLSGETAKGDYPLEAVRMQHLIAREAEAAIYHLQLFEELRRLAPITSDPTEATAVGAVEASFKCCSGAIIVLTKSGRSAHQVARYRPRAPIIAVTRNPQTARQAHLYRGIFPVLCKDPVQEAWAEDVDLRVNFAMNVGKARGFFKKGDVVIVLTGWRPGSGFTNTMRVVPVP
UniProt O60260: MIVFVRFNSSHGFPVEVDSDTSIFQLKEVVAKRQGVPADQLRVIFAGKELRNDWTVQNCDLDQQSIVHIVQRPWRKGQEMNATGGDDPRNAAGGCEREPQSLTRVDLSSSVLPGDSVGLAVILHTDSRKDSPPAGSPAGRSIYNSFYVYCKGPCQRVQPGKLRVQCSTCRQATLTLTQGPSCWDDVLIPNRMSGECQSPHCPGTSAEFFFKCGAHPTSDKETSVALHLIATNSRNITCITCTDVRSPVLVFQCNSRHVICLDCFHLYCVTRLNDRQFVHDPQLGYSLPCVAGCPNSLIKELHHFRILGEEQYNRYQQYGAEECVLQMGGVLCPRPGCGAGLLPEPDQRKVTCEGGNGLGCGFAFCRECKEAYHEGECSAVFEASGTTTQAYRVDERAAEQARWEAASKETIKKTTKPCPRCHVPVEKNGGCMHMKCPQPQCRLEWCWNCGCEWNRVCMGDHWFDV

What was measured:
[1] = biological target: FLAG-HA-PKM2 (double-tagged human pyruvate kinase M2) (human) (UniProt P14618); assay: affinity purification with mass spectrometry; cytoplasmic extracts of FLAG-HA-PKM2/H1299 or FLAG-HA-parkin/H1299 stable lines; FLAG M2 and HA two-step immunoprecipitation; LC-MS/MS of gel bands and Western blot of the purified complex; parental H1299 as control
[2] = biological target: FLAG-HA-parkin (FLAG- and HA-double tagged human parkin) (human) (UniProt O60260); assay: as above

binding [1]	binding [2]	Substance
binds	–	parkin, endogenous (from UniProt O60260 1-465) (enzyme)
–	binds	pyruvate kinase M2, endogenous (from UniProt P14618 1-531) (enzyme)

No constants are given. Whether binding was seen depends on the method and setting. Binding seen in cells or lysates may run through a third protein. A yes stands for co-enrichment or nearness to the bait. Other partners may have been found.
